Changes are numbered by the printed parent chain. Names and notes keep the numbering of the source. These are yes or no findings as the source states them, for the method shown. Binding seen in cells or lysates may run through a third protein. Some binding calls cover weakened binding; strength is not graded here. Sequences can lack the tags named with a protein.
T1: Flag-tagged mouse MRTF-A (myocardin-related transcription factor A) (mouse) (UniProt Q8K4J6)
T1 sequence: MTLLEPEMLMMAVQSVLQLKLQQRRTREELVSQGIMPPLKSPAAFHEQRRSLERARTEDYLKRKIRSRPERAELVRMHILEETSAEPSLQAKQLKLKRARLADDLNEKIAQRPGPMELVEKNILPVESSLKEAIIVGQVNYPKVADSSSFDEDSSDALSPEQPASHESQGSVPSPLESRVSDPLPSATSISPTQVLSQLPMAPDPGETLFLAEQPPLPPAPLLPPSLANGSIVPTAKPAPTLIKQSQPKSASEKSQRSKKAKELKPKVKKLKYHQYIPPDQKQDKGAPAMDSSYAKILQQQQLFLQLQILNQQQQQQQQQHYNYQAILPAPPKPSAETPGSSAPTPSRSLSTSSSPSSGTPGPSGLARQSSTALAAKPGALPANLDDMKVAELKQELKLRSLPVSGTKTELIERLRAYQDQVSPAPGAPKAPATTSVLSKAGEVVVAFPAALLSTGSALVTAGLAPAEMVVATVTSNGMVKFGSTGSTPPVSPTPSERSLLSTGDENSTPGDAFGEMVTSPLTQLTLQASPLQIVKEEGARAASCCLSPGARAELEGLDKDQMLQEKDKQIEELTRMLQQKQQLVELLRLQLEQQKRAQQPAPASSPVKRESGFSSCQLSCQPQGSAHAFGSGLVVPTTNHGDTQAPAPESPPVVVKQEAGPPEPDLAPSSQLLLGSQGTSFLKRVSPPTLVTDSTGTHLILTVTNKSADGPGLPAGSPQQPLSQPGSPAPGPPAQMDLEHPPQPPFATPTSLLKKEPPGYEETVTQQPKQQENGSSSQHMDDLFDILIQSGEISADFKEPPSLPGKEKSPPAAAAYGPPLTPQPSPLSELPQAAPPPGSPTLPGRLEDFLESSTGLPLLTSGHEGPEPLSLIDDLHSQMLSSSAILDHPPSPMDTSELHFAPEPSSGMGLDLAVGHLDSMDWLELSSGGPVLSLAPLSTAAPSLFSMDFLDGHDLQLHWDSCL

T2: HA-tagged human CRP2 (cysteine and glycine-rich protein 2) (human) (UniProt Q16527)
T2 sequence: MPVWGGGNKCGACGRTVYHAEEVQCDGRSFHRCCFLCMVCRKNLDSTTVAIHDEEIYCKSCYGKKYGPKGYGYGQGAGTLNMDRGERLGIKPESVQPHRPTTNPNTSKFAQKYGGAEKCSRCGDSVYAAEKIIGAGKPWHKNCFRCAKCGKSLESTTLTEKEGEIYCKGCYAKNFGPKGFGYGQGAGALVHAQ

B1: Myc-tagged human SRF (serum response factor), wild-type (protein, UniProt P11831 1-508)
chain: MLPTQAGAAAALGRGSALGGSLNRTPTGRPGGGGGTRGANGGRVPGNGAGLGPGRLEREAAAAAATTPAPTAGALYSGSEGDSESGEEEELGAERRGLKRSLSEMEIGMVVGGPEASAAATGGYGPVSGAVSGAKPGKKTRGRVKIKMEFIDNKLRRYTTFSKRKTGIMKKAYELSTLTGTQVLLLVASETGHVYTFATRKLQPMITSETGKALIQTCLNSPDSPPRSDPTTDQRMSATGFEETDLTYQVSESDSSGETKDTLKPAFTVTNLPGTTSTIQTAPSTSTTMQVSSGPSFPITNYLAPVSASVSPSAVSSANGTVLKSTGSGPVSSGGLMQLPTSFTLMPGGAVAQQVPVQAIQVHQAPQQASPSRDSSTDLTQTSSSGTVTLPATIMTSSVPTTVGGHMMYPSPHAVMYAPTSGLGDGSLTVLNAFSQAPSTMQVSHSQVQEPGGVPQVFLTASSGTVQIPVSAVQLHQMAVIGQQAGSSSNLTELQVVNLDTAHSTKSE
B2: HA-tagged human CRP2 (cysteine and glycine-rich protein 2) (protein, UniProt Q16527 1-193)
chain: T2 sequence
B3: human CRP2BP (CSRP2-binding protein) (protein, UniProt Q9H8E8-1 1-782)
chain: MDSSIHLSSLISRHDDEATRTSTSEGLEEGEVEGETLLIVESEDQASVDLSHDQSGDSLNSDEGDVSWMEEQLSYFCDKCQKWIPASQLREQLSYLKGDNFFRFTCSDCSADGKEQYERLKLTWQQVVMLAMYNLSLEGSGRQGYFRWKEDICAFIEKHWTFLLGNRKKTSTWWSTVAGCLSVGSPMYFRSGAQEFGEPGWWKLVHNKPPTMKPEGEKLSASTLKIKAASKPTLDPIITVEGLRKRASRNPVESAMELKEKRSRTQEAKDIRRAQKEAAGFLDRSTSSTPVKFISRGRRPDVILEKGEVIDFSSLSSSDRTPLTSPSPSPSLDFSAPGTPASHSATPSLLSEADLIPDVMPPQALFHDDDEMEGDGVIDPGMEYVPPPAGSVASGPVVGVRKKVRGPEQIKQEVESEEEKPDRMDIDSEDTDSNTSLQTRAREKRKPQLEKDTKPKEPRYTPVSIYEEKLLLKRLEACPGAVAMTPEARRLKRKLIVRQAKRDRGLPLFDLDQVVNAALLLVDGIYGAKEGGISRLPAGQATYRTTCQDFRILDRYQTSLPSRKGFRHQTTKFLYRLVGSEDMAVDQSIVSPYTSRILKPYIRRDYETKPPKLQLLSQIRSHLHRSDPHWTPEPDAPLDYCYVRPNHIPTINSMCQEFFWPGIDLSECLQYPDFSVVVLYKKVIIAFGFMVPDVKYNEAYISFLFVHPEWRRAGIATFMIYHLIQTCMGKDVTLHVSASNPAMLLYQKFGFKTEEYVLDFYDKYYPLESTECKHAFFLRLRR
B4: CRP2BP637, a mutant CRP2BP that lacks the HAT domain (domain or fragment, UniProt Q9H8E8-1 1-637)
chain: MDSSIHLSSLISRHDDEATRTSTSEGLEEGEVEGETLLIVESEDQASVDLSHDQSGDSLNSDEGDVSWMEEQLSYFCDKCQKWIPASQLREQLSYLKGDNFFRFTCSDCSADGKEQYERLKLTWQQVVMLAMYNLSLEGSGRQGYFRWKEDICAFIEKHWTFLLGNRKKTSTWWSTVAGCLSVGSPMYFRSGAQEFGEPGWWKLVHNKPPTMKPEGEKLSASTLKIKAASKPTLDPIITVEGLRKRASRNPVESAMELKEKRSRTQEAKDIRRAQKEAAGFLDRSTSSTPVKFISRGRRPDVILEKGEVIDFSSLSSSDRTPLTSPSPSPSLDFSAPGTPASHSATPSLLSEADLIPDVMPPQALFHDDDEMEGDGVIDPGMEYVPPPAGSVASGPVVGVRKKVRGPEQIKQEVESEEEKPDRMDIDSEDTDSNTSLQTRAREKRKPQLEKDTKPKEPRYTPVSIYEEKLLLKRLEACPGAVAMTPEARRLKRKLIVRQAKRDRGLPLFDLDQVVNAALLLVDGIYGAKEGGISRLPAGQATYRTTCQDFRILDRYQTSLPSRKGFRHQTTKFLYRLVGSEDMAVDQSIVSPYTSRILKPYIRRDYETKPPKLQLLSQIRSHLHRSDPHWTPEPDAP
B5: Myc-tagged SRF S103D (pseudo-phosphorylation mutant) (protein, UniProt P11831 1-508)
chain: B1 chain with S103D
B6: Myc-tagged SRF S103A (non-phosphorylation mutant) (protein, UniProt P11831 1-508)
chain: B1 chain with S103A

Biological target: T1, Flag-tagged mouse MRTF-A (myocardin-related transcription factor A) (mouse)
Assay: co-IP; IP mixtures (500 ul) of the indicated in vitro translated proteins (TNT SP6 wheat germ extract), IP/IB with the indicated antibodies; mixes with or without CRP2BP or CRP2BP637

binding, binds:
B1
B2
B3
B4
B5
B6

Biological target: T2, HA-tagged human CRP2 (cysteine and glycine-rich protein 2) (human)
Assay: as above

binding, binds:
B1
B5
B6

Reference: PMC11496777
